The source of these data is patent publication US20060265769A1, “Gab2 (p97) gene and methods of use thereof” (Beth Israel Deaconess Medical Center, Inc., priority 2000, published 2006).

The chains behind the UniProt entries cited, without tags or fusion partners. Where a name states a change or a piece, a line headed by the entry shows the natural chain unless it says otherwise. Residues count along the entry.
UniProt Q60631: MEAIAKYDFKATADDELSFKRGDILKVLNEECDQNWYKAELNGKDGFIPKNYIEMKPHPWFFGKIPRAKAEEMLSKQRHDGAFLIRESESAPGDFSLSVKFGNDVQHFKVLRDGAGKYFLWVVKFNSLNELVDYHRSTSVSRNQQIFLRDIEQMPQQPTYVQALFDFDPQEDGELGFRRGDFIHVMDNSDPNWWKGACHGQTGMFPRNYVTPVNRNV
UniProt P26450, residues 2-724: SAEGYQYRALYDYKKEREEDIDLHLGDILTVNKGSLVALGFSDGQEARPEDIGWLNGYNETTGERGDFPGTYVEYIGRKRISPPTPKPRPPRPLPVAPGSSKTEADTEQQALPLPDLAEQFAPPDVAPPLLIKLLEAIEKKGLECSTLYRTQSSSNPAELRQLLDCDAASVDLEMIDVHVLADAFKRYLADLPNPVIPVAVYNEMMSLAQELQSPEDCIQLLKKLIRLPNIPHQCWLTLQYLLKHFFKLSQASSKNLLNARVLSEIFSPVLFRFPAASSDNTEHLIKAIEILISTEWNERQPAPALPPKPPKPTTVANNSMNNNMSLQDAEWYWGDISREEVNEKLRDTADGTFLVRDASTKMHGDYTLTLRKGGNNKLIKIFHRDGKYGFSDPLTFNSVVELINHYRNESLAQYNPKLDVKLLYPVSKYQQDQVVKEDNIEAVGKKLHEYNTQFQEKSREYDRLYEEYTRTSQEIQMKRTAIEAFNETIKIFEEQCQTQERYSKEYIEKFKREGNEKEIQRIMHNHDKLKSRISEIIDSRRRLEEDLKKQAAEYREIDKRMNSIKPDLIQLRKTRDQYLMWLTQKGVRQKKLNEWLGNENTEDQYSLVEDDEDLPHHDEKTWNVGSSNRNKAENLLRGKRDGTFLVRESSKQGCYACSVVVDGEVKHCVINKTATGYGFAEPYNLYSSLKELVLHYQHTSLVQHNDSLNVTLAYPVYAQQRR
UniProt P27986, residues 2-724: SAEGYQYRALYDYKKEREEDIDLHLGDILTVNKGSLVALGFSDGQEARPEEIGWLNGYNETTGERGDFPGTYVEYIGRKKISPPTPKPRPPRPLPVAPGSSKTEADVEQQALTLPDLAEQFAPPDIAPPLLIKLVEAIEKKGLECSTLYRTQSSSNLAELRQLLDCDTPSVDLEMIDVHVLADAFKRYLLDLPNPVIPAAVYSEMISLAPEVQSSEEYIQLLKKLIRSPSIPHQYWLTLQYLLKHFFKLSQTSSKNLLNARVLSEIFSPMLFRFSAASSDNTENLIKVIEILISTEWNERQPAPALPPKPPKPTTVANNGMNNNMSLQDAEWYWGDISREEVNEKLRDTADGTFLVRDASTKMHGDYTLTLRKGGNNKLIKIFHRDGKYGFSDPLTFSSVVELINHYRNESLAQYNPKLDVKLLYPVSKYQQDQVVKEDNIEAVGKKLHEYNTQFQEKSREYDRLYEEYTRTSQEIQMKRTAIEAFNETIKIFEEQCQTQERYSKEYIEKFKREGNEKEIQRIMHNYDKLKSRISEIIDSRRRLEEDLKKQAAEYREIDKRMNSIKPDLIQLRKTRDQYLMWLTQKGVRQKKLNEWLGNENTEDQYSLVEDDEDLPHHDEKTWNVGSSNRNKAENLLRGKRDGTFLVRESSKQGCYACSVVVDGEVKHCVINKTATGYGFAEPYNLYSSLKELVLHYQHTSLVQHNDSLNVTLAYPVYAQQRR
UniProt Q9Z1S8: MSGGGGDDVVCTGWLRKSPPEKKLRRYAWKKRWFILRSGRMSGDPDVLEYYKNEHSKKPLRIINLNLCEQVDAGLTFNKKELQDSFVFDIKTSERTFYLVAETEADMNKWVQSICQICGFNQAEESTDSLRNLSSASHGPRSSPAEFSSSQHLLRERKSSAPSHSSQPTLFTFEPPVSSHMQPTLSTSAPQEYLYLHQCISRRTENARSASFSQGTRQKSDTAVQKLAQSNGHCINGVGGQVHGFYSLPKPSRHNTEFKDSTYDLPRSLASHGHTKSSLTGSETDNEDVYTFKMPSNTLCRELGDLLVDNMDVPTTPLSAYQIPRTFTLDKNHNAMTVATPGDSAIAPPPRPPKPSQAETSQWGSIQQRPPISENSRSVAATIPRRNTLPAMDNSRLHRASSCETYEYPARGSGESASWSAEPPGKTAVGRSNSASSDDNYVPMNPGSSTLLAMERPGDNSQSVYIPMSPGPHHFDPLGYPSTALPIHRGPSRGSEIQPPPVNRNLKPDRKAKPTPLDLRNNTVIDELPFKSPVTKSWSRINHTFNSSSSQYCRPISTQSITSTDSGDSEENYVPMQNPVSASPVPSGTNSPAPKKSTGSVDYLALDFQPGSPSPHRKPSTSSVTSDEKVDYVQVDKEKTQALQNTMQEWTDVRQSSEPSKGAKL
UniProt Q9UQC2: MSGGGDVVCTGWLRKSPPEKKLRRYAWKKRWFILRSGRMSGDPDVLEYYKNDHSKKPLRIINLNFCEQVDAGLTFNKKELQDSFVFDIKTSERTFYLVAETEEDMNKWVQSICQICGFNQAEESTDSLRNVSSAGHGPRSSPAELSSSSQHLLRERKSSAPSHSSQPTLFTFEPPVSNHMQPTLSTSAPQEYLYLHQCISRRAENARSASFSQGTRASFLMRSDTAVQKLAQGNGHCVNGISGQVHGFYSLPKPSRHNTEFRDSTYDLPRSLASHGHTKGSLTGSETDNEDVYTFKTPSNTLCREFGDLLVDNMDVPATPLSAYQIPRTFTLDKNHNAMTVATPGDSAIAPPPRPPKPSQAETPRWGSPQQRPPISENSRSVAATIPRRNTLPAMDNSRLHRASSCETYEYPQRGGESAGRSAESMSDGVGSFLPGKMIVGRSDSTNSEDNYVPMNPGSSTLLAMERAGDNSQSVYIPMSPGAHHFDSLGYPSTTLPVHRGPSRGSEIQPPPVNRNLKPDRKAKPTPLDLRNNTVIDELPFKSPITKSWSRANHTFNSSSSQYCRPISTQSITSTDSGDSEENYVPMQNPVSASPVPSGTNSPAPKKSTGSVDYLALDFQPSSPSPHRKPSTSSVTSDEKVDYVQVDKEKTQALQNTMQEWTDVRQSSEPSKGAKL

Results are given in words; binding and its absence hold for the method and conditions named. For part of these data: In cells and extracts the contact can be indirect. Some binding calls cover weakened binding; strength is not graded here.

In one test the target is Grb2 (UniProt Q60631). The experiment in a line: co-immunoprecipitation, BaF3 cells expressing Gab2HA, with and without IL-3.
For test [1], the target named is p85 subunit of PI-3K (UniProt P26450). The experiment in a line: co-immunoprecipitation, IL-3-stimulated BaF3 cells expressing Gab2HA.
Test [2] deals with T1, Shc (UniProt P98083).
T1 sequence (looked up): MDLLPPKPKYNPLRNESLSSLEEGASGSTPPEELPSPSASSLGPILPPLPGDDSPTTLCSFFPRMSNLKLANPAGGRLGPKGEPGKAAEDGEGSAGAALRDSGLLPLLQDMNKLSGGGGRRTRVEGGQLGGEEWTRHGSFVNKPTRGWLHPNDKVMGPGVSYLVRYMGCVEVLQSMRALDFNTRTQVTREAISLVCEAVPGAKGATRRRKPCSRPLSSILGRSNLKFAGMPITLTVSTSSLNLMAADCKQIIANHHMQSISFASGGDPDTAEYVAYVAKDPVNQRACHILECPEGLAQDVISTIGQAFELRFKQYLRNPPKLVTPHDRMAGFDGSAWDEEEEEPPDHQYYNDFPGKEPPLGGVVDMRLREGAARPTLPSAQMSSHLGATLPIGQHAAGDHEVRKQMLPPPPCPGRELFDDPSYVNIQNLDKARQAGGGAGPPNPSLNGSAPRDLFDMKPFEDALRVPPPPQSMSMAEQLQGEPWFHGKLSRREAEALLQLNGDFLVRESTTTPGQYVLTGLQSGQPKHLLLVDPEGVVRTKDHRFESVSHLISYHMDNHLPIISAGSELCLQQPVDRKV
Described as above.

In test [3] the target is p85 subunit of PI-3K (UniProt P26450). The experiment in a line: co-immunoprecipitation from transfected BaF3 cells.
Test [4] deals with T1, Shc. The test can be described thus: co-immunoprecipitation from transfected BaF3 cells.
The target in test [5] is p85 (endogenous, in MDA-MB-486 cells) (UniProt P27986). The test can be described thus: Gab2 immunoprecipitation followed by immunoblotting with p85 antibodies.

For the substance Gab2HA (from UniProt Q9Z1S8 1-665), the binding entry with Grb2, with p85 subunit of PI-3K [1] and with Shc [2] was “binds” in each case.
As to Gab2ΔY2HA (from UniProt Q9Z1S8 1-602), the binding entry in the test with p85 subunit of PI-3K [3] and in the test with Shc [4] was “binds” in each case.
On to “Gab2 (endogenous, in Kit225, Jurkat and MDA-MB-486 cells) (from UniProt Q9UQC2 1-676)”, for which the binding entry in test [5] is “binds”.
